Measured values: paper doi:10.1101/2023.12.13.571451 (bioRxiv, 2023)
Changes are numbered by the printed parent chain. Names and notes keep the numbering of the source. No constants are given. Whether binding was seen depends on the method and setting. For part of these data: In cells and extracts the contact can be indirect. Some results given as binding are weak or reduced against the parent protein; the word gives no strength. Sequences can lack the tags named with a protein. Blank lines part the entries; values can stand above or below the binder they belong to.

Protein sequences, listed by entry. Tags and fused reporters are not part of them. Lines headed by an entry give the natural chain unless they say otherwise; changes in a name come on top.
UniProt P00359, whole entry: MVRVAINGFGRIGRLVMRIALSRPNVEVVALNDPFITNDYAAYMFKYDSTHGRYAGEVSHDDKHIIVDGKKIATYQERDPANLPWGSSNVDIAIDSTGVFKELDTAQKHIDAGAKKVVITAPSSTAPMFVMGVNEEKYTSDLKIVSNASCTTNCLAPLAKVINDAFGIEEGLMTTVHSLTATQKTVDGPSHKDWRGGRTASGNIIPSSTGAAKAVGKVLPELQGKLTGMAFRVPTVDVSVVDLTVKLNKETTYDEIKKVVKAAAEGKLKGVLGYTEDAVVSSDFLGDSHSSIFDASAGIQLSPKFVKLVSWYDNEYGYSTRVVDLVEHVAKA

Tests used:
[1] = biological target: Tdh3-V5 (glyceraldehyde-3-phosphate dehydrogenase) (S. cerevisiae) (UniProt P00359); test: co-IP
[2] = biological target: T1, Eno2-V5 (S. cerevisiae) (UniProt P00925); test: co-IP
T1 sequence: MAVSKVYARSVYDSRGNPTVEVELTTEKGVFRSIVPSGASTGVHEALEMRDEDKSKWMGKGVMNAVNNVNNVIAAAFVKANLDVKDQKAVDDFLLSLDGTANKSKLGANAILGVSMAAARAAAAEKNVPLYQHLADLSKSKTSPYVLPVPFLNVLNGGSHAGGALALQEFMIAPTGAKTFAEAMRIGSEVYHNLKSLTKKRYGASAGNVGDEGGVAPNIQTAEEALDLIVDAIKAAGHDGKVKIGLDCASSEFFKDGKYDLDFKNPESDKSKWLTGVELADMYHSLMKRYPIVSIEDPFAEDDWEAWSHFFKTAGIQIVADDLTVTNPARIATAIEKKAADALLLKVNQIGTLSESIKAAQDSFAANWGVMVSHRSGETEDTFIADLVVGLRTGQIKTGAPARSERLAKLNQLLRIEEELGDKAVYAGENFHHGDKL

[3] = biological target: T2, Gnd1-V5 (6-phosphogluconate dehydrogenase) (S. cerevisiae) (UniProt P38720); test: co-IP
T2 sequence: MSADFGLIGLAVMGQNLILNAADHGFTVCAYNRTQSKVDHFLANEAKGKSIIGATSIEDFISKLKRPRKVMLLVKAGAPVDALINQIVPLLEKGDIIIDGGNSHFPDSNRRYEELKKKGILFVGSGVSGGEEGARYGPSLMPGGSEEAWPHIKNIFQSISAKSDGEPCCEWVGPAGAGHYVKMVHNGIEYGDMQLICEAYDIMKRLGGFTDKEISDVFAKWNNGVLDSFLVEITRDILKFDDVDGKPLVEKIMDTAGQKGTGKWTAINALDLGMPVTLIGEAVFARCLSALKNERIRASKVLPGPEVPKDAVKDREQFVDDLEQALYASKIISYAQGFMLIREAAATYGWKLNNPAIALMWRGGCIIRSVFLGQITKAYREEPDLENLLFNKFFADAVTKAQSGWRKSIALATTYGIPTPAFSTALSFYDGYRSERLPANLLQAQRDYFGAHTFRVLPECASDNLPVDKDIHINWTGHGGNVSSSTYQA

[4] = biological target: T3, Gpd1-V5 (S. cerevisiae) (UniProt Q00055); test: co-IP
T3 sequence: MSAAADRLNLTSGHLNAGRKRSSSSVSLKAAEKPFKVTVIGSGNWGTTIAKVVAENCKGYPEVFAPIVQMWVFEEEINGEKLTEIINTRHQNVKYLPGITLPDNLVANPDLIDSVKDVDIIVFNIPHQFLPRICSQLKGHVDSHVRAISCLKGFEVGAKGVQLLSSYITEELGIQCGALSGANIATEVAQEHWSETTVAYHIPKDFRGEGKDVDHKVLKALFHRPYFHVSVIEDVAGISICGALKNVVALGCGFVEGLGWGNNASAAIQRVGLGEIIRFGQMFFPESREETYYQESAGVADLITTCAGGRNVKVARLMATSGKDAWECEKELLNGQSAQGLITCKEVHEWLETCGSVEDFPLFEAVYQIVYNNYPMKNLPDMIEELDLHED

[5] = biological target: T4, Cdc19-V5 (pyruvate kinase) (S. cerevisiae) (UniProt P00549); test: co-IP
T4 sequence: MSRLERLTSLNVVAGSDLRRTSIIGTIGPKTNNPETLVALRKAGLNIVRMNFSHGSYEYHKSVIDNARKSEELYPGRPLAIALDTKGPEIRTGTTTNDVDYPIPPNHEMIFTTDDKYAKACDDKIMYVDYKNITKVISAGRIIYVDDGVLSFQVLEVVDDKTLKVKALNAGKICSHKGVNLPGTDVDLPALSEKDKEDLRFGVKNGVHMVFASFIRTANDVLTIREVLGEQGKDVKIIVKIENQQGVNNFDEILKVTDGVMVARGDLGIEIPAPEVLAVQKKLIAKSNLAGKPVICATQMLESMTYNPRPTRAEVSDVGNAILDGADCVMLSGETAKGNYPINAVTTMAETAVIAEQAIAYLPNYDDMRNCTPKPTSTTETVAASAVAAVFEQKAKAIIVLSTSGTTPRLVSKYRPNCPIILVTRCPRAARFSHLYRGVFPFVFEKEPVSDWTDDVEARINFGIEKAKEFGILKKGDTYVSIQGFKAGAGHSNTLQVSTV

[6] = biological target: T2, Gnd1-V5 (6-phosphogluconate dehydrogenase) (S. cerevisiae); test: non-reducing SDS-PAGE with immunoblot

binding [1]: binds
binding [2]: binds
binding [3]: binds
binding [4]: binds
binding [5]: binds
binding [6]: binds
B1: Tsa1^WT-HA (peroxiredoxin Tsa1, single C-terminal HA tag at the endogenous locus) (protein, UniProt P34760 1-196)
chain: MVAQVQKQAPTFKKTAVVDGVFDEVSLDKYKGKYVVLAFIPLAFTFVCPTEIIAFSEAAKKFEEQGAQVLFASTDSEYSLLAWTNIPRKEGGLGPINIPLLADTNHSLSRDYGVLIEEEGVALRGLFIIDPKGVIRHITINDLPVGRNVDEALRLVEAFQWTDKNGTVLPCNWTPGAATIKPTVEDSKEYFEAANK

binding [1]: binds
binding [2]: binds
binding [3]: binds
binding [4]: binds
binding [5]: binds
binding [6]: binds
B2: Tsa1^C171S-HA (resolving cysteine mutant) (protein, UniProt P34760 1-196)
chain: B1 chain with C171S
